Experimental data published in the supplement of paper PMC10849652.
The list shows a part of the results.

Chains of the proteins cited; added tags and fusions are not shown. Lines headed by an entry give the natural chain unless they say otherwise; changes in a name come on top.
UniProt Q8IZQ5, whole entry, looked up: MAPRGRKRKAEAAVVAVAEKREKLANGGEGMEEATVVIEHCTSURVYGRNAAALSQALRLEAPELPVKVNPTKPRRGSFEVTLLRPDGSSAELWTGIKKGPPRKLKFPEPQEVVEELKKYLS
UniProt O43236: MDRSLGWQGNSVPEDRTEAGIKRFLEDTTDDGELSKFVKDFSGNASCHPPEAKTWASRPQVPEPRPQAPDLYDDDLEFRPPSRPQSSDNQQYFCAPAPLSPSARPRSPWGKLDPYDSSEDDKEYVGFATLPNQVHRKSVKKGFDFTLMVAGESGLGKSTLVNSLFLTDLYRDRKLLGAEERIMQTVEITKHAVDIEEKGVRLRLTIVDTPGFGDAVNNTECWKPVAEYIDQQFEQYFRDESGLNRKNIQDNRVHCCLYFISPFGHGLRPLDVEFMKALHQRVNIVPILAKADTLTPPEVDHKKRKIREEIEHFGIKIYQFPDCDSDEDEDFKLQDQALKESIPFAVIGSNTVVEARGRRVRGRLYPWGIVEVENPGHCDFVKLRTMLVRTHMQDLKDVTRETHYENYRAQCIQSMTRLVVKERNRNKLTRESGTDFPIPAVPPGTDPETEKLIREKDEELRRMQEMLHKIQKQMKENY
UniProt Q15637: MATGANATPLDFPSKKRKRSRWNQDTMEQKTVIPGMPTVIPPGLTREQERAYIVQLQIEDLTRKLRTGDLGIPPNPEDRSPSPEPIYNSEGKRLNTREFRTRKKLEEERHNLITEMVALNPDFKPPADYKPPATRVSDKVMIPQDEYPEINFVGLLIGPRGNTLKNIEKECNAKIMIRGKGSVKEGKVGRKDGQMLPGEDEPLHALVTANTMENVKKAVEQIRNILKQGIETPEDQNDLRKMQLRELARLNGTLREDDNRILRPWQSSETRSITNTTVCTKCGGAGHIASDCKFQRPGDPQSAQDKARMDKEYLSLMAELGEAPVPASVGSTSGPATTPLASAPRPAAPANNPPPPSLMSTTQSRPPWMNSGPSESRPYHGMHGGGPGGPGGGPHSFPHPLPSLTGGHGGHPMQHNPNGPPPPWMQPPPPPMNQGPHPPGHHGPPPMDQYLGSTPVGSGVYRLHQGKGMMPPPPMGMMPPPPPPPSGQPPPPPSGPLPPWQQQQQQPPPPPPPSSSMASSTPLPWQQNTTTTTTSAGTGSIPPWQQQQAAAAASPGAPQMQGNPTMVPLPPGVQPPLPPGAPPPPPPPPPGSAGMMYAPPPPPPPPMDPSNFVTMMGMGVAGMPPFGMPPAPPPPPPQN
UniProt Q8IX90, whole entry, looked up: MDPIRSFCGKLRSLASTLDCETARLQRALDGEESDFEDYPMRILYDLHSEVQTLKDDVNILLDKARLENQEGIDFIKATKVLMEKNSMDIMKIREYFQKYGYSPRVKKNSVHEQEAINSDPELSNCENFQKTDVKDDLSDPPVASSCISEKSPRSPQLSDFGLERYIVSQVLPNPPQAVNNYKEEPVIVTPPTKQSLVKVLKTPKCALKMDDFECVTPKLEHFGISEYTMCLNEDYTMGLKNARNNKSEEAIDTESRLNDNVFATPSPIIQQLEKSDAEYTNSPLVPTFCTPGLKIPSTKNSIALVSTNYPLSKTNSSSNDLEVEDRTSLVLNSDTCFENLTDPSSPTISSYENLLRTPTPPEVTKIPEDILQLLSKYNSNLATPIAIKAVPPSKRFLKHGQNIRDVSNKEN
UniProt Q99574: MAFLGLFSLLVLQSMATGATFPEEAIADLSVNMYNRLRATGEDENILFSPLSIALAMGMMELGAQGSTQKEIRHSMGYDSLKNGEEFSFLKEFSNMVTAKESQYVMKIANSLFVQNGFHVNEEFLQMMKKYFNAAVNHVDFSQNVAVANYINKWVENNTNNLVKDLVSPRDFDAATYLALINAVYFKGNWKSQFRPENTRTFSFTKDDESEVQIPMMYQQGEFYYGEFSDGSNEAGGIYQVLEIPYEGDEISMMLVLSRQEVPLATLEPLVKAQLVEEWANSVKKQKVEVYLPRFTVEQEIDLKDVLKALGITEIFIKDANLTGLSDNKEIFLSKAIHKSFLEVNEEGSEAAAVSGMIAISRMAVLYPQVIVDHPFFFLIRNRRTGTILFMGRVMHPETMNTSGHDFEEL
UniProt Q9BX95: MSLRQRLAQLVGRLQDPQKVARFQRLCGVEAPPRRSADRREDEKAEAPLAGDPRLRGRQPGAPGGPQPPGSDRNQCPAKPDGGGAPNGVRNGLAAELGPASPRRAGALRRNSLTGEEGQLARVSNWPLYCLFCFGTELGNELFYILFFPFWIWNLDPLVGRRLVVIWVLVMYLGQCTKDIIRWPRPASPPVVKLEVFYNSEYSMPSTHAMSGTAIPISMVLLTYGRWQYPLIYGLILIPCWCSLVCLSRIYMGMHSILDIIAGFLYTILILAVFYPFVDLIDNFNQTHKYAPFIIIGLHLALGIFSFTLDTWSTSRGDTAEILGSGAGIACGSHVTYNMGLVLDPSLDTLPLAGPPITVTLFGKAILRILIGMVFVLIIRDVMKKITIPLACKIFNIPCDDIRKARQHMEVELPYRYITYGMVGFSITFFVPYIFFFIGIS
UniProt Q8TD22: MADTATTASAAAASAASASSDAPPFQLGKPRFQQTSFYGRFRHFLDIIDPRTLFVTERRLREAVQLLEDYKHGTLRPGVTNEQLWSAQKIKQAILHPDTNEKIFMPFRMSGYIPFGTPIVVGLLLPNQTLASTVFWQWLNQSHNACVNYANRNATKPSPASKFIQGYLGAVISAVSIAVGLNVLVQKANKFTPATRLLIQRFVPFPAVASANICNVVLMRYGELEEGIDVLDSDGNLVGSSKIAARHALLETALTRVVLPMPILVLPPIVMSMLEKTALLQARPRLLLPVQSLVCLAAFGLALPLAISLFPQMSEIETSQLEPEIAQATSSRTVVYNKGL
UniProt Q9H0K1: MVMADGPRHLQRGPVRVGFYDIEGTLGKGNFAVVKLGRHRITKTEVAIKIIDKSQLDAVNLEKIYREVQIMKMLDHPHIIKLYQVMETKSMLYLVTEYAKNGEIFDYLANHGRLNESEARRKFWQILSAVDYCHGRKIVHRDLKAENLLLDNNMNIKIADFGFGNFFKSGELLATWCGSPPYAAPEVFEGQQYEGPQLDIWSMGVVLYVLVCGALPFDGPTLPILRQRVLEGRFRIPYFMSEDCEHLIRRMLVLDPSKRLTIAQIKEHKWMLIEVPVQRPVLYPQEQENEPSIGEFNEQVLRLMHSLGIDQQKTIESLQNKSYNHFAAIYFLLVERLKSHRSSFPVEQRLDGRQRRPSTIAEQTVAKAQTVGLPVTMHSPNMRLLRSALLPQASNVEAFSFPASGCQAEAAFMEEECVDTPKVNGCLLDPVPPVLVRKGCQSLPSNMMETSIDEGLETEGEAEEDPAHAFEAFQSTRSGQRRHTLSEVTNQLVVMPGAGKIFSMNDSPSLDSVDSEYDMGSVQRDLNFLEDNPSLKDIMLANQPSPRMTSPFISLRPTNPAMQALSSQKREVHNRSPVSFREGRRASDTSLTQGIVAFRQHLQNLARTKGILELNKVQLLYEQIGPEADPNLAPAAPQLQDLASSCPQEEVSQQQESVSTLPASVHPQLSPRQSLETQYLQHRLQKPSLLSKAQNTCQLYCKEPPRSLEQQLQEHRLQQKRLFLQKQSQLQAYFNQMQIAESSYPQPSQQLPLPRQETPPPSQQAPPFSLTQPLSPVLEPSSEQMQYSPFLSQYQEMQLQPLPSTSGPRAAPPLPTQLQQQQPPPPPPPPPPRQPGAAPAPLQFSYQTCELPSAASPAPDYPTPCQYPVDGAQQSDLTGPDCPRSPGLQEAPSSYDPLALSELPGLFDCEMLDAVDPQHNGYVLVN
UniProt P60059: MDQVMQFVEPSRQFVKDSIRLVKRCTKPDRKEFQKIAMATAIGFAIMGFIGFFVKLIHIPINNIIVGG
UniProt Q8NEM2: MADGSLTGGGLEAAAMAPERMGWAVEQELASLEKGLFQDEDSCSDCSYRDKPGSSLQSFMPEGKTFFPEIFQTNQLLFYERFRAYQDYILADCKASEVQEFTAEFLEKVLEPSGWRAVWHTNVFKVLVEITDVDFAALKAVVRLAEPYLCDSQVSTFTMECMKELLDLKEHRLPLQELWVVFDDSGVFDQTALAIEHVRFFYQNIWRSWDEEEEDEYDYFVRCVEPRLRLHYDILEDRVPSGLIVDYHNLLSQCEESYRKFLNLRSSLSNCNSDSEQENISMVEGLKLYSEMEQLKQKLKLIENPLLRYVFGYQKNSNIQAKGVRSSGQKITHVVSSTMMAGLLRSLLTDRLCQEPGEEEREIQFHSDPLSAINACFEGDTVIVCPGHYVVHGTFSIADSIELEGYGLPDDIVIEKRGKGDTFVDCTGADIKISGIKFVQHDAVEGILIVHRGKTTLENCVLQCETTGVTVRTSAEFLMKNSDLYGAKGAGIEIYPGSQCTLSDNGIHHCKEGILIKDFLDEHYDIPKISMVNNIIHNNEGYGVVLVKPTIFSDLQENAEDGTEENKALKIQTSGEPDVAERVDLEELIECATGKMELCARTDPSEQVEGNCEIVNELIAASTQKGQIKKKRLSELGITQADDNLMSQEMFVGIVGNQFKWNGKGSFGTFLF
UniProt A1X283: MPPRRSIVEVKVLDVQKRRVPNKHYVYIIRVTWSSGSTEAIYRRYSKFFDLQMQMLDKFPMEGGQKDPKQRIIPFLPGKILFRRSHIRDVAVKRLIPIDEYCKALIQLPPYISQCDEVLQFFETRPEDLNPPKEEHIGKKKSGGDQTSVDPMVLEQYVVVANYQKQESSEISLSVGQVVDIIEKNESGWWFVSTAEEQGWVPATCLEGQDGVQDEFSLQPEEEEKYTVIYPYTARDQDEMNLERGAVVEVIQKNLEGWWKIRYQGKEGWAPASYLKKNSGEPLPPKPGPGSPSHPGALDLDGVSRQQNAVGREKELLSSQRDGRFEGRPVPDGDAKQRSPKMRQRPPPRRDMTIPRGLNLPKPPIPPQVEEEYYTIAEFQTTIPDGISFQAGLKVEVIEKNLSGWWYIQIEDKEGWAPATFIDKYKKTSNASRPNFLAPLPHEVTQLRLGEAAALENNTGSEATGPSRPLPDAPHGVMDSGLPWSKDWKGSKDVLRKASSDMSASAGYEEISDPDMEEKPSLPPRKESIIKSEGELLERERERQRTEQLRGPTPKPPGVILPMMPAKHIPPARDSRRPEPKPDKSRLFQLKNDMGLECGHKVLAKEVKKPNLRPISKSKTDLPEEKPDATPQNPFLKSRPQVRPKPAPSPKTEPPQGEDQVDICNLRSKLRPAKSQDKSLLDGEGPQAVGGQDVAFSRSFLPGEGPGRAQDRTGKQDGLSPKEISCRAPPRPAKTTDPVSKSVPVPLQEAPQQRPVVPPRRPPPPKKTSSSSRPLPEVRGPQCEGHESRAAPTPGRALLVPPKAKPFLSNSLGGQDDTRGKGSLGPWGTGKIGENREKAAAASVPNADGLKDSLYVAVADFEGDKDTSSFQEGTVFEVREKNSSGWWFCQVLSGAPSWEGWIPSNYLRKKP
UniProt Q99442: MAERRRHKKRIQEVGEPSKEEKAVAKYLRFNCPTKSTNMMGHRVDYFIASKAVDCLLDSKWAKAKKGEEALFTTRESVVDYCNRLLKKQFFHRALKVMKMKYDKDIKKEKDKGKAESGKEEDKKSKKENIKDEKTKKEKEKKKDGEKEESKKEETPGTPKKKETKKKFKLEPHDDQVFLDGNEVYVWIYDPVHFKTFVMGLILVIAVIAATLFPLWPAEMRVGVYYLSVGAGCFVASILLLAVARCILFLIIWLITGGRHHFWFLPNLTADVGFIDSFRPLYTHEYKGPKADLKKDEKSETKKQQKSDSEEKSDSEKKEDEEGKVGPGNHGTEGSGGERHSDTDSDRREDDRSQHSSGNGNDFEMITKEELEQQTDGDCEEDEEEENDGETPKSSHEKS
UniProt P34896: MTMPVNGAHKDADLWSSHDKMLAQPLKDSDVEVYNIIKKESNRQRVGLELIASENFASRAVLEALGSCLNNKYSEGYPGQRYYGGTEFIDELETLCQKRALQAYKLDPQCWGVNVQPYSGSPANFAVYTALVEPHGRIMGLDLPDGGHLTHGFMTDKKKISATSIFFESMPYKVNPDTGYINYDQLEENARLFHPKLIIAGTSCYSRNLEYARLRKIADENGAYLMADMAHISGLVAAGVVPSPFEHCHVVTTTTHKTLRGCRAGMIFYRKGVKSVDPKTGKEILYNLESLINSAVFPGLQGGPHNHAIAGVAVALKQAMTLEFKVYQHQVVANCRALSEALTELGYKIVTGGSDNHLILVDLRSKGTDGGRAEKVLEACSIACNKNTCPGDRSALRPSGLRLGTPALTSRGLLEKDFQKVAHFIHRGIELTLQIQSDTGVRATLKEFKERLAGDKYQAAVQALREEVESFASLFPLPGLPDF
UniProt Q8IUQ4: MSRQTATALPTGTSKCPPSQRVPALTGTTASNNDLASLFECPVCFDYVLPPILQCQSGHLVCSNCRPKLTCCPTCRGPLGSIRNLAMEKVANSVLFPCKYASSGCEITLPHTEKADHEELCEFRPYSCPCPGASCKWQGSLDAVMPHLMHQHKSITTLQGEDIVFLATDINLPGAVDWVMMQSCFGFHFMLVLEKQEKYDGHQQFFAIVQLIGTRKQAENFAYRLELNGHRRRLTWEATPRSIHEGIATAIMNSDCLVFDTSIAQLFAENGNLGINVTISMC

Legend:
Experiment in all cases: log2 fold change, soluble protein after heating vs DMSO (PISA); higher = thermal stabilisation; K562 cells, 10 uM, 30 min; active = over 0.2 and 3.5 SD of the protein, either way, in both replicates (recomputed)
[1] = compound: C1=CC=C(C=C1)[C@H](COC2=CC3=C(C=C2)NC(=O)N3)NC(=O)C4=CC=CN(C4=O)CC5=CC(=C(C=C5)F)F
How it was run: (§1)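 Values are thermal stability changes relative to control samples and are taken from duplicates. They are stated as log2 fold changes. Before quantification by TMTpro 16plex LC-MS/MS with equalised channel sums, K562 cells at 2×10^6 cells/mL were treated with 10 μM compound for 30 min, heated in aliquots for 3 min across 48°C-58°C, pooled, extracted in PBS with 0.5% NP-40 at 4°C, and centrifuged at 21,000xg for 90 min to give the soluble supernatant.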

[2] = compound: CC1=C(SC2=C1C(=N[C@H](C3=NN=C(N32)C)CC(=O)N)C4=CC=C(C=C4)Cl)C
How it was run: as §1

[3] = compound: CC1=C2C(=CC=C1)N=C(N(C2=O)C3=CC=CC=C3C)CN4C=NC5=C(N=CN=C54)N
How it was run: as §1

[4] = compound: Cc1sc2c(c1C)C(c1ccc(Cl)cc1)=N[C@@H](CC(=O)OC(C)(C)C)c1nnc(C)n1-2
How it was run: as §1

[5] = compound: c1ccc([C@@H]2C[C@H]2NC2CCNCC2)cc1
How it was run: as §1

Measured: log2 fold change

SELENOH (UniProt Q8IZQ5)
inactive: [1] 0.049 | [2] -0.107 | [3] -0.258 | [4] -0.028 | [5] 0.08

SELENOP (UniProt P49908)
inactive: [1] -0.105

SEPTIN4 isoform 4 (UniProt O43236)
inactive: [1] -0.035 | [2] 0.086 | [3] -0.197 | [4] -0.104 | [5] -0.015

SEPTIN9 (UniProt Q9UHD8)
inactive: [1] 0.009 | [2] 0.041 | [3] 0.033 | [4] -0.008 | [5] 0.001

SFXN4 isoform 3 (UniProt Q6P4A7)
inactive: [1] 0.053 | [2] 0.316 | [3] 0.302 | [4] -0.198 | [5] 0.033

SF1 isoform 6 (UniProt Q15637)
inactive: [1] 0.039 | [2] 0.16 | [3] 0.157 | [4] -0.017 | [5] -0.279

SH3BGRL3 (UniProt Q9H299)
inactive: [1] 0.022 | [2] 0.102 | [3] 0.051 | [4] -0.077 | [5] -0.026

SGMS1 (UniProt Q86VZ5)
inactive: [1] 0.017 | [2] -0.019 | [3] 0.007 | [4] -0.036 | [5] 0.033

SKA3 (UniProt Q8IX90)
inactive: [1] 0.058 | [2] -0.137 | [3] -0.035 | [4] 0.164 | [5] 0.114

SHROOM2 (UniProt Q13796)
inactive: [1] 0.105 | [2] 0.102 | [3] 0.103 | [4] -0.008 | [5] -0.072

SFT2D2 (UniProt O95562)
inactive: [1] 0.047 | [2] 0.097 | [3] 0.116 | [4] -0.024 | [5] -0.002

SERPINI1 (UniProt Q99574)
inactive: [1] -0.007 | [2] -0.019 | [3] 0.041 | [4] 0.046 | [5] 0.084

SELENOF (UniProt O60613)
inactive: [1] 0.033 | [2] 0.018 | [3] 0.063 | [4] -0.01 | [5] -0.036

SGPP1 (UniProt Q9BX95)
inactive: [1] -0.105 | [2] 0.023 | [3] 0.099 | [4] 0.106 | [5] 0.074

SHTN1 isoform 3 (UniProt A0MZ66)
inactive: [1] -0.058 | [2] 0.009 | [3] 0.148 | [4] -0.027 | [5] -0.024

SFXN5 (UniProt Q8TD22)
inactive: [1] -0.079 | [2] 0.024 | [3] -0.11 | [4] 0.007 | [5] -0.061

SIK2 (UniProt Q9H0K1)
inactive: [1] -0.072

SF3B2 (UniProt Q13435)
inactive: [1] 0.024 | [2] -0.035 | [3] -0.026 | [4] 0.063 | [5] 0.019

SERPINB1 (UniProt P30740)
inactive: [1] 0.002 | [2] 0.081 | [3] 0.078 | [4] -0.011 | [5] -0.01

SH3BP1 (UniProt Q9Y3L3)
inactive: [1] 0.009 | [2] 0.043 | [3] 0.043 | [4] -0.007 | [5] 0.02

SF3B3 (UniProt Q15393)
inactive: [1] 0.008 | [2] 0.025 | [3] 0.037 | [4] 0 | [5] -0.014

SIPA1 (UniProt Q96FS4)
inactive: [1] 0.072 | [2] 0.021 | [3] 0.053 | [4] 0.029 | [5] -0.026

SEC61G (UniProt P60059)
inactive: [1] 0.046

SF3A2 (UniProt Q15428)
inactive: [1] -0.029 | [2] -0.018 | [3] 0.02 | [4] 0.017 | [5] 0.005

SHCBP1 (UniProt Q8NEM2)
inactive: [1] 0.018 | [2] -0.176 | [3] 0.138 | [4] -0.089 | [5] -0.056

SIRT6 (UniProt Q8N6T7)
inactive: [1] -0.124 | [2] 0.011 | [3] 0.166 | [4] 0.021 | [5] 0.013

SH3PXD2B (UniProt A1X283)
inactive: [1] 0.07 | [2] 0.029 | [3] 0.001 | [4] -0.038 | [5] -0.046

SERGEF (UniProt Q9UGK8)
inactive: [1] -0.089 | [2] 0.088 | [3] 0.02 | [4] 0.019 | [5] -0.107

SFXN2 (UniProt Q96NB2)
inactive: [1] -0.006 | [2] -0.025 | [3] 0.159 | [4] -0.054 | [5] -0.006

SEPTIN8 (UniProt Q92599)
inactive: [1] 0.007 | [2] 0.028 | [3] 0.021 | [4] -0.007 | [5] 0.018

SEC62 (UniProt Q99442)
inactive: [1] 0.067 | [2] 0.006 | [3] 0.073 | [4] -0.072 | [5] 0

SERPINB8 (UniProt P50452)
inactive: [1] 0.02 | [2] -0.018 | [3] -0.104 | [4] 0.111 | [5] 0.1

SEC61A1 (UniProt P61619)
inactive: [1] 0.03 | [2] 0.05 | [3] 0.031 | [4] -0.042 | [5] -0.007

SEPTIN10 isoform 2 (UniProt Q9P0V9)
inactive: [1] -0.046 | [2] 0.138 | [3] 0.03 | [4] -0.087 | [5] -0.08

SERPINA7 (UniProt P05543)
inactive: [1] -0.014 | [2] -0.001 | [3] 0.1 | [4] 0.12 | [5] 0.128

SHMT1 (UniProt P34896)
inactive: [1] 0.015 | [2] 0.01 | [3] 0.034 | [4] -0.028 | [5] 0.021

SFT2D3 (UniProt Q587I9)
inactive: [1] -0.151 | [2] -0.068 | [3] -0.093 | [4] 0.004 | [5] 0.02

SEPTIN7 (UniProt Q16181)
inactive: [1] -0.038 | [2] 0.027 | [3] -0.027 | [4] -0.039 | [5] -0.011

SEMA4C (UniProt Q9C0C4)
inactive: [1] -0.017 | [2] 0.057 | [3] 0.004 | [4] 0.018 | [5] 0.05

SIAH1 isoform 2 (UniProt Q8IUQ4)
inactive: [1] 0.138 | [2] 0.174 | [3] 0.136 | [4] -0.044 | [5] 0.053

SF1 (UniProt H7C0N4)
inactive: [1] 0.031 | [2] 0 | [3] 0.056 | [4] -0.025 | [5] 0.162

SFSWAP isoform 2 (UniProt Q12872)
inactive: [1] -0.117 | [2] -0.041 | [3] 0.062 | [4] 0.08 | [5] 0.085

SELENBP1 isoform 4 (UniProt Q13228)
inactive: [1] -0.014 | [2] 0 | [3] -0.014 | [4] -0.005 | [5] 0.031

SGF29 (UniProt Q96ES7)
inactive: [1] 0 | [2] 0.018 | [3] 0.104 | [4] -0.012 | [5] -0.021

SIRT5 (UniProt Q9NXA8)
inactive: [1] -0.011 | [2] -0.021 | [3] 0.011 | [4] -0.051 | [5] -0.056

SEC61B (UniProt P60468)
inactive: [1] -0.021 | [2] -0.015 | [3] -0.032 | [4] 0.002 | [5] 0.075

SEPTIN2 isoform 2 (UniProt Q15019)
inactive: [1] 0.005 | [2] 0.015 | [3] 0.037 | [4] -0.004 | [5] 0.026

SHKBP1 (UniProt Q8TBC3)
inactive: [1] 0.003 | [2] 0.086 | [3] -0.095 | [4] 0.016 | [5] 0.015

SFPQ (UniProt P23246)
inactive: [1] 0.042 | [2] -0.104 | [3] -0.067 | [4] 0.06 | [5] 0.022

SET isoform 2 (UniProt Q01105)
inactive: [1] -0.02 | [2] 0.002 | [3] -0.032 | [4] -0.025 | [5] -0.004

SGPL1 (UniProt O95470)
inactive: [1] 0.041 | [2] -0.014 | [3] 0.005 | [4] 0.049 | [5] -0.004

Quoted at random: two entries already listed.
SEPTIN2 isoform 2 (UniProt Q15019)
inactive: [1] 0.005 | [2] 0.015 | [3] 0.037 | [4] -0.004 | [5] 0.026

SHKBP1 (UniProt Q8TBC3)
inactive: [1] 0.003 | [2] 0.086 | [3] -0.095 | [4] 0.016 | [5] 0.015

Next records

SKP1 (UniProt P63208)
inactive: [1] -0.035 | [2] -0.008 | [3] 0 | [4] -0.036 | [5] -0.017

SH3BP5 (UniProt O60239)
inactive: [1] 0.023 | [2] -0.008 | [3] -0.069 | [4] 0.066 | [5] -0.033

SEPHS2 (UniProt Q99611)
inactive: [1] -0.014 | [2] 0.06 | [3] -0.049 | [4] -0.054 | [5] 0.05
